Data from PMC8550753.
No constants are given. Whether binding was seen depends on the method and setting. In cells and extracts the contact can be indirect. Some binding calls cover weakened binding; strength is not graded here. Blank lines part the entries; values can stand above or below the molecule they belong to.

Sequences of proteins named here, by UniProt entry; tags and fusion partners are left off. Residues count along the entry.
UniProt Q6P9K9, residues 28-1496: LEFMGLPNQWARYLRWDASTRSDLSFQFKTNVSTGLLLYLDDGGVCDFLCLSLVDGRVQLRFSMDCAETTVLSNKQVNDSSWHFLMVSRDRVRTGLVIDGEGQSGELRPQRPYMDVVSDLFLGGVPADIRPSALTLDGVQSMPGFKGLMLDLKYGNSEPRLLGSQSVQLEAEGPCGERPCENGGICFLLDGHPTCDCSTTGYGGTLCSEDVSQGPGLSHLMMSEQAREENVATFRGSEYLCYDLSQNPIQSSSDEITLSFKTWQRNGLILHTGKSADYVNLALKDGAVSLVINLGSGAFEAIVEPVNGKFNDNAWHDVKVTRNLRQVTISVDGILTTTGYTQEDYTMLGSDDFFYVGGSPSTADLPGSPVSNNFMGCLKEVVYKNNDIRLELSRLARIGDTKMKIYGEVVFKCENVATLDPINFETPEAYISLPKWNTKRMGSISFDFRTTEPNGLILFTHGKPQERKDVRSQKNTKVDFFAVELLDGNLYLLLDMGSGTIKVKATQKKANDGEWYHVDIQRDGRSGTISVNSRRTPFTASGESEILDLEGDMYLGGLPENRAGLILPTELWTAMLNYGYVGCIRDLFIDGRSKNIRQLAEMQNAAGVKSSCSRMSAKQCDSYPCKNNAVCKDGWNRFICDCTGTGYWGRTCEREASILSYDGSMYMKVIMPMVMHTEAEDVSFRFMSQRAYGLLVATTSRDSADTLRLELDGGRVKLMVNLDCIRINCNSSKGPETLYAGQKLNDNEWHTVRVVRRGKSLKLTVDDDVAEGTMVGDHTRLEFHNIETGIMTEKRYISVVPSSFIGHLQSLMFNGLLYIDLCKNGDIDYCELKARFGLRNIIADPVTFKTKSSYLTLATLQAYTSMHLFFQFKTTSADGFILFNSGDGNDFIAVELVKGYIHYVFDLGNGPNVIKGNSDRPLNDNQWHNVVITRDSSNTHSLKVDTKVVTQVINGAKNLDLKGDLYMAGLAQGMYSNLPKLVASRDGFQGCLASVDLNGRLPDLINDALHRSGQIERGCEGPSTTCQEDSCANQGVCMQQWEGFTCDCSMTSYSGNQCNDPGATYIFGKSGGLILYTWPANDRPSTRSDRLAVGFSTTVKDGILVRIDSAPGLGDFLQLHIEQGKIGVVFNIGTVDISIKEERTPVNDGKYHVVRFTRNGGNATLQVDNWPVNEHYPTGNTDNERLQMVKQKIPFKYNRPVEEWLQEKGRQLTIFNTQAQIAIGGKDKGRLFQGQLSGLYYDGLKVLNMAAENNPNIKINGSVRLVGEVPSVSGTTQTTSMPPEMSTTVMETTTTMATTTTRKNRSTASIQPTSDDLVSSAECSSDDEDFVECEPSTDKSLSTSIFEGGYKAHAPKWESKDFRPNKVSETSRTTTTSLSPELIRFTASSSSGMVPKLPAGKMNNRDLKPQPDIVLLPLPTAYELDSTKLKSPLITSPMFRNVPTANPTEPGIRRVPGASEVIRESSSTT
UniProt Q69ZK9, residues 15-836: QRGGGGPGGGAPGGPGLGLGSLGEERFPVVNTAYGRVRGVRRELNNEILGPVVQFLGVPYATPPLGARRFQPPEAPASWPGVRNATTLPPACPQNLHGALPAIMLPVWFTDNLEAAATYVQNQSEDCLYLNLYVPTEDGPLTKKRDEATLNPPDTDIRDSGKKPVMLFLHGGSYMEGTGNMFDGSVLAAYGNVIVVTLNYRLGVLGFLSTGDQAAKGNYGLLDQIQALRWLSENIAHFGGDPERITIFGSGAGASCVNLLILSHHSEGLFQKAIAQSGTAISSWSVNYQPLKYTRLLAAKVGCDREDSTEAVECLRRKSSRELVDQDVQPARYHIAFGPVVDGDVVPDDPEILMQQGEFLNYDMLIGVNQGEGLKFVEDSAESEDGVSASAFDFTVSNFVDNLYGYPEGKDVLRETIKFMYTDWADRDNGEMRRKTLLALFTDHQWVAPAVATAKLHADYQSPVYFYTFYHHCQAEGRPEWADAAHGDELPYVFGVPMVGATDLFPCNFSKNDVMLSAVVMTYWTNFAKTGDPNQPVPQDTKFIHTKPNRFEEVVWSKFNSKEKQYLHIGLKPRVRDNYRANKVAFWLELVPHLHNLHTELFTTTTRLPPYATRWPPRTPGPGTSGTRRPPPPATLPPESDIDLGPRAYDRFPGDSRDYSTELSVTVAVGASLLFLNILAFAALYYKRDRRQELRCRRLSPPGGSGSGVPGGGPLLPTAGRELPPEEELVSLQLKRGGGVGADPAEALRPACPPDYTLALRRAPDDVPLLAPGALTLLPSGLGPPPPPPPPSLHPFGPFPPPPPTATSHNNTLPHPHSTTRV

Columns and labels:
[1] = biological target: extracellular domain of mouse neurexin-3 alpha SS4+ fused with the human Fc domain (mouse) (UniProt Q6P9K9); experiment: pull-down; as a1 but without calcium: incubation with 5 mM EDTA, washes without CaCl2 and MgCl2; only the target purified
[2] = biological target: extracellular domain of mouse neurexin-3 alpha SS4+ fused with the human Fc domain (mouse) (UniProt Q6P9K9); experiment: pull-down; Nrxn3α-Fc on protein A beads incubated with the 100,000 x g supernatant of mouse cerebella solubilized in 25 mM Tris-Cl pH 8.0, 1 % LMNG; with 2 mM CaCl2 and 2 mM MgCl2; six washes with 0.1 % LMNG, 40 mM Tris-HCl pH 8.0 with 2 mM CaCl2, 2 mM MgCl2; bound proteins by SDS-PAGE and immunoblot; only the target purified

binding [2]: binds
Molecule: neuroligin 2 (from UniProt Q69ZK9 15-836)
binding [1]: no binding (condition: with 5 mM EDTA (without calcium))

binding [2]: binds
B1: GARLH4 (protein, UniProt Q5U4E0 1-247)
chain: MLPSQEASKLYHEHYMRNSRAIGVLWAIFTICFAIINVVVFIQPYWVGDSVSTPKPGYFGLFHYCVGSGLAGRELTCRGSFTDFSTIPSSAFKAAAFFVLLSMVLILGCITCFALFFFCNTATVYKICAWMQLLAALCLVLGCMIFPDGWDAETIRDMCGAKTGKYSLGDCSVRWAYILAIIGILNALILSFLAFVLGNRQTDLLQEELKQENKDFVGTTVSSVLRPGGDVSGWGVLPCPVAHTQGP
binding [1]: no binding (condition: with 5 mM EDTA (without calcium))
